Data published in article PMC9815809.
Results are given in words; binding and its absence hold for the method and conditions named. In cells and extracts the contact can be indirect. Some entries that bind do so weakly or less than the wild type.

Chains of the proteins cited; added tags and fusions are not shown.
UniProt P97454: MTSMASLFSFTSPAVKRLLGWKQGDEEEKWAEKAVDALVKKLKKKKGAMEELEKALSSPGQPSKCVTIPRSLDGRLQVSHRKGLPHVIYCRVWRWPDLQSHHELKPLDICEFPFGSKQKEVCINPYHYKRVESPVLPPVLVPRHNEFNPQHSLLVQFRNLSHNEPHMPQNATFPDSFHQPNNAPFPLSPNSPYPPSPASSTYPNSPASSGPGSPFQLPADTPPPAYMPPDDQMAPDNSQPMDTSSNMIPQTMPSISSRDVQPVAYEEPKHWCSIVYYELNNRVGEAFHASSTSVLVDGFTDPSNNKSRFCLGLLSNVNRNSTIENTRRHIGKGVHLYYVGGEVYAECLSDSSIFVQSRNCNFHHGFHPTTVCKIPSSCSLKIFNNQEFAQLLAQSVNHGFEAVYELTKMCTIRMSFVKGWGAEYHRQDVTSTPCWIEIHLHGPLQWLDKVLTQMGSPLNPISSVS
UniProt O35625: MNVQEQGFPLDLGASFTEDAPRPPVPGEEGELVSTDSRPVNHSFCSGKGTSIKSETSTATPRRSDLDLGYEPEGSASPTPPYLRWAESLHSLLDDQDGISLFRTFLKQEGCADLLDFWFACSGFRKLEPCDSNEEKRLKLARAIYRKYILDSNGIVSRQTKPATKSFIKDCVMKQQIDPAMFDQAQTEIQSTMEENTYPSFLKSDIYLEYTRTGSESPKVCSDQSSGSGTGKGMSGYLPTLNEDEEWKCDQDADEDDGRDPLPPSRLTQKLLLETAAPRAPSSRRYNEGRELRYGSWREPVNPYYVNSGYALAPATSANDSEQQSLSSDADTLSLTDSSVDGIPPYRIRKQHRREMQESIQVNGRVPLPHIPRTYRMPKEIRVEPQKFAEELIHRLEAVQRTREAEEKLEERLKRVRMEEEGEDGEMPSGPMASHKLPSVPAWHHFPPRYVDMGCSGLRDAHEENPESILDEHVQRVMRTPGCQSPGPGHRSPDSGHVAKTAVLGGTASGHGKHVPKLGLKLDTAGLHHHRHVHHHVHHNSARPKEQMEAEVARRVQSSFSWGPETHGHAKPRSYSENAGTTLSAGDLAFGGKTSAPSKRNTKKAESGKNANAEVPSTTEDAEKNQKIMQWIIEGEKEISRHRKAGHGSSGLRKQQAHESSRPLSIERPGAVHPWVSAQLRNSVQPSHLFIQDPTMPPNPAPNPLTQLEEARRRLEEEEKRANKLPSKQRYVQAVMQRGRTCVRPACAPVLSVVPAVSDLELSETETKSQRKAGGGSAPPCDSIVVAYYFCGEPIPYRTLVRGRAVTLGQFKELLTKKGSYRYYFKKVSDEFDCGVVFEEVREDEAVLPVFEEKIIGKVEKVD

Target: Smad5 (mouse (endogenous in C3H10T1/2)) (UniProt P97454)
Experiment: co-IP; C3H10T1/2 cell lysate (50 mM Tris pH 7.4, 150 mM NaCl, 1 mM EDTA, 1% Nonidet P-40, 10% glycerol, 0.5 mM DTT), precleared with IgG-agarose; IP with anti-Smad5 antibody on Protein G Plus-Agarose at 4°C overnight, six washes; Western blot with anti-Axin1 antibody; both proteins endogenous

binding: binds
Substance: Axin1 (from UniProt O35625 1-863)
